Measured values as given in patent US6989356B2, “Partially-fluorinated-alkyl compound, lubricant comprising the compound, and recording medium using the lubricant” (Sony Corp., priority 2002, dated 2006).

Legend:
[1] = Coefficient of friction of sample tape coated with the lubricant; conditions: after the 100th-cycle transport, coating weight 5 mg/m^2 on carbon film layer
[2] = Still durability of sample tape coated with the lubricant; conditions: period of time until the replay output was lowered by 3 dB
[3] = Shuttle durability of sample tape coated with the lubricant; conditions: 100-cycle transport in Play mode, output change between initial and 100th cycle

For `CCCCCCCCCCCCCCCCCCC(CC(=O)OCCC(F)(F)C(F)(F)C(F)(F)C(F)(F)C(F)(F)C(F)(F)C(F)(F)C(F)(F)F)C(=O)OCc1c2ccccc2cc2ccccc12` (stereo not shown) [Exp. 21, C18H37—CH(CH2COOCH2CH2(CF2)8) COOCH2C14H9], which “Coefficient of friction (40° C., 80% RH)” value [1] is on record?
Its value is 0.20.

What about the “Still durability (min) (−5° C.)” value [2] of the same molecule?
Its value is >120 min.

What about the “Shuttle durability (dB) (40° C., 20% RH)” value [3] of the same molecule?
Its value is −1.8 dB.

What does the source list for 2,3-Naphthalenediol [Exp. 11]?
Coefficient of friction (40° C., 80% RH) [1]: 0.21; Still durability (min) (−5° C.) [2]: >120 min

Which results are given for 2,3-Naphthalenediol [Exp. 19]?
Coefficient of friction (40° C., 80% RH) [1]: 0.20; Still durability (min) (−5° C.) [2]: >120 min

With `COC(=O)C(F)(F)C(F)(F)C(F)(F)C(F)(F)C(F)(F)C(F)(F)C(F)(F)C(F)(F)C(F)(F)C(F)(F)C(F)(F)C(F)(F)C(F)(F)C(F)(F)C(F)(F)C(F)(F)C(F)(F)C(F)(F)F` [Comp. Exp. 2, C8F17(CF2)10COOCH3, reference compound] as the molecule, how does the “Coefficient of friction (40° C., 80% RH)” value [1] read?
Its value is 0.35.

And the “Still durability (min) (−5° C.)” value [2]?
The value was 50 min.

What about the “Shuttle durability (dB) (40° C., 20% RH)” value [3] of the same molecule?
Its value is −5.0 dB.

What does the source list for “C18H37—CH(CH2COO(CH2)2(CF2)8F)COOC10H6OH [Exp. 17]”?
Coefficient of friction (40° C., 80% RH) [1]: 0.20; Still durability (min) (−5° C.) [2]: >120 min

What does the source list for “C18H37CH(COOH)CH2COOCH2CF(CF3)[CF(CF3)CF2O]3F [Comp. Exp. 4, reference compound]”?
Coefficient of friction (40° C., 80% RH) [1]: 0.25; Still durability (min) (−5° C.) [2]: 10 min

With `CCCCCCCCCCCCCCCCCCC(CC(=O)OCCC(F)(F)C(F)(F)C(F)(F)C(F)(F)C(F)(F)C(F)(F)C(F)(F)C(F)(F)F)C(=O)Oc1ccccc1C` (stereo not shown) [Exp. 23, C18H37—CH(CH2COOCH2CH2(CF2)8)COOC6H4CH3] as the molecule, how does the “Coefficient of friction (40° C., 80% RH)” value [1] read?
Its value is 0.20.

And the “Still durability (min) (−5° C.)” value [2]?
The value was >120 min.

And the “Shuttle durability (dB) (40° C., 20% RH)” value [3]?
The value was −1.9 dB.

Which “Coefficient of friction (40° C., 80% RH)” value [1] does the source give for `CCCCCCCCCCCCCCCCCCC(CC(=O)OCCC(F)(F)C(F)(F)C(F)(F)C(F)(F)C(F)(F)C(F)(F)C(F)(F)C(F)(F)F)C(=O)Oc1ccc(N)cc1` (stereo not shown) [Exp. 24, C18H37—CH(CH2COOCH2CH2(CF2)8) COOC6H4NH] here?
The value was 0.20.

And the “Still durability (min) (−5° C.)” value [2]?
The value was >120 min.

And the “Shuttle durability (dB) (40° C., 20% RH)” value [3]?
Its value is −1.8 dB.

For 2,3-Naphthalenediol [Exp. 12], which “Coefficient of friction (40° C., 80% RH)” value [1] is on record?
The value was 0.25.

What about the “Still durability (min) (−5° C.)” value [2] of the same molecule?
The value was >120 min.

For 2,3-Naphthalenediol [Exp. 9], which “Coefficient of friction (40° C., 80% RH)” value [1] is on record?
The value was 0.21.

What about the “Still durability (min) (−5° C.)” value [2] of the same molecule?
Its value is >120 min.

For “C18H37—CH(CH2COOCH2CH2(CF2)8) COO C6H4F [Exp. 25]”, which “Coefficient of friction (40° C., 80% RH)” value [1] is on record?
The value was 0.22.

What about the “Still durability (min) (−5° C.)” value [2] of the same molecule?
The value was >120 min.

Which results are given for `CCCCCCCCCCCCCCCCCCC(CC(=O)OCCC(F)(F)C(F)(F)C(F)(F)C(F)(F)C(F)(F)C(F)(F)C(F)(F)C(F)(F)F)C(=O)Oc1ccncc1` (stereo not shown) [Exp. 22, C18H37—CH(CH2COOCH2CH2(CF2)8) COO C5H4N]?
Coefficient of friction (40° C., 80% RH) [1]: 0.20; Still durability (min) (−5° C.) [2]: >120 min; Shuttle durability (dB) (40° C., 20% RH) [3]: −1.8 dB

What does the source list for 2,3-Naphthalenediol [Exp. 13]?
Coefficient of friction (40° C., 80% RH) [1]: 0.25; Still durability (min) (−5° C.) [2]: >120 min

With `CCCCCCCCCCCCCCCCCCC(CC(=O)OCCC(F)(F)C(F)(F)C(F)(F)C(F)(F)C(F)(F)C(F)(F)C(F)(F)C(F)(F)F)C(=O)Oc1ccc(-c2ccccc2)cc1` (stereo not shown) [Exp. 27, C18H37—CH(CH2COOCH2CH2(CF2)8) COOC6H4C6H5] as the molecule, how does the “Coefficient of friction (40° C., 80% RH)” value [1] read?
Its value is 0.20.

And the “Still durability (min) (−5° C.)” value [2]?
Its value is >120 min.

What about the “Shuttle durability (dB) (40° C., 20% RH)” value [3] of the same molecule?
The value was −1.7 dB.

What does the source list for 2,3-Naphthalenediol [Exp. 15]?
Coefficient of friction (40° C., 80% RH) [1]: 0.20; Still durability (min) (−5° C.) [2]: >120 min

Which results are given for 2,3-Naphthalenediol [Exp. 18]?
Coefficient of friction (40° C., 80% RH) [1]: 0.20; Still durability (min) (−5° C.) [2]: >120 min

For 2,3-Naphthalenediol [Exp. 16], which “Coefficient of friction (40° C., 80% RH)” value [1] is on record?
The value was 0.20.

What about the “Still durability (min) (−5° C.)” value [2] of the same molecule?
Its value is >120 min.

Which results are given for `CCCCCCCCCCCCCCCCCCN` [Comp. Exp. 1, C18H37NH2, reference compound]?
Coefficient of friction (40° C., 80% RH) [1]: 0.20; Still durability (min) (−5° C.) [2]: 3 min; Shuttle durability (dB) (40° C., 20% RH) [3]: −6.0 dB

What does the source list for 2,3-Naphthalenediol [Exp. 14]?
Coefficient of friction (40° C., 80% RH) [1]: 0.23; Still durability (min) (−5° C.) [2]: >120 min

Which results are given for `CCCCCCCCCCCCCCCCCCC(CC(=O)OCCC(F)(F)C(F)(F)C(F)(F)C(F)(F)C(F)(F)C(F)(F)C(F)(F)C(F)(F)F)C(=O)Oc1ccc(C(=O)O)cc1` (stereo not shown) [Exp. 26, C18H37—CH(CH2COOCH2CH2(CF2)8) COOC6H4COOH]?
Coefficient of friction (40° C., 80% RH) [1]: 0.22; Still durability (min) (−5° C.) [2]: >120 min; Shuttle durability (dB) (40° C., 20% RH) [3]: −1.6 dB

Which “Coefficient of friction (40° C., 80% RH)” value [1] does the source give for 2,3-Naphthalenediol [Exp. 8] here?
The value was 0.21.

And the “Still durability (min) (−5° C.)” value [2]?
Its value is >120 min.

Which results are given for `CCCCCCCCCCCCCCCCCCC(CC(=O)OCCC(F)(F)C(F)(F)C(F)(F)C(F)(F)C(F)(F)C(F)(F)C(F)(F)C(F)(F)F)C(=O)Oc1ccccc1` (stereo not shown) [Exp. 20, C18H37—CH(CH2COOCH2CH2(CF2)8)COO C6H5]?
Coefficient of friction (40° C., 80% RH) [1]: 0.20; Still durability (min) (−5° C.) [2]: >120 min; Shuttle durability (dB) (40° C., 20% RH) [3]: −1.8 dB

With “C18H37—CH(CH2COOC18H37)COO C10H6OH [Exp. 10]” as the molecule, how does the “Coefficient of friction (40° C., 80% RH)” value [1] read?
Its value is 0.21.

What about the “Still durability (min) (−5° C.)” value [2] of the same molecule?
Its value is >120 min.
